Experimental findings from US9128097B2, “Method and kit for assessing viable cells” (ChemoMetec A/S, priority 2008, dated 2015) are described below.

This series in a line: Fluorescence spectra of maleimide with -SH reagents (spectrofluorophotometer). It is filed as physicochemical. To be noted: for fluorescence on mixing with GSH: 0.33 μg/mL compound with GSH 167 μg/mL; for fluorescence on mixing with GSSG: 0.33 μg/mL compound with GSSG 167 μg/mL; for fluorescence of the compound alone: 0.33 μg/mL in distilled water.

On to `O=C1C=CC(=O)N1c1c2ccccc2nc2ccccc12` [NAM, N-(9-acridinyl)maleimide], for which the “fluorescence on mixing with GSH” value is on record as “strong synergistic effect with respect to fluorescence”, the “fluorescence on mixing with GSSG” value is reported as “not GSSG” and the “fluorescence of the compound alone” value was “very weak fluorescence”. For the same compound, under “0.33 μg/mL compound with DTT 167 μg/mL”, the “fluorescence on mixing with DTT” value is listed as “strong synergistic effect with respect to fluorescence”.
Take `O=C1C=CC(=O)N1c1ccc2ccc3cccc4ccc1c2c34` [PM, N-(1-Pyrenyl)maleimide]: the “fluorescence on mixing with GSH” value is recorded as “strong synergistic effect with respect to fluorescence”, the “fluorescence on mixing with GSSG” value is reported as “not GSSG” and the “fluorescence of the compound alone” value is “very weak fluorescence”.
